PubChem BioAssay AID743454 – Peter MacCallum Cancer Centre, 2014
The whole screen tested about 18,000 reagents; shown is a random part of them. 450 of all reagents (2.5%) count as active. 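Single biological run; no consistent viability z cut-off exists, so the class columns, not z-scores, define the calls.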 No sequences are given here.

Aim: 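Search for knock-downs that restore vorinostat killing in resistant colon cancer cells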 (primary screen)
System: human HCT116-VR colon cancer cells, selected for vorinostat resistance
Reagent: siRNA pool against human genes, 40 nM siRNA pool
Time to read-out: vorinostat for 24 h, read-out about 72 h after transfection
Conditions: vorinostat at 2.5 µM final
Measured: 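Two measures, CellTiter-Fluor viability and luminescent caspase 3/7 activity, each as fold change against same-plate mock wells, mean of duplicates, then screen-wide robust z-score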
Direction: viability robust z-score: higher = more viable cells than screen typical; caspase robust z-score: higher = more caspase 3/7 activity than screen typical
Hit rule: 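Hits are knock-downs in viability class RV1/RV2 or caspase class CA1/CA2, excluding ones that killed cells in the no-drug cell-count arm; hits then retested with single siRNAs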

target gene | viability hit class | caspase hit class | viability robust z-score | caspase robust z-score | call
KCNMA1 (GeneID 3778) | no change | no change | -0.55 | -0.93 | inactive
SIX3 (GeneID 6496) | no change | no change | -0.51 | -0.7 | inactive
OR5T1 (GeneID 390155) | no change | no change | 0.06 | -1.02 | inactive
NEDD4 (GeneID 4734) | no change | no change | -0.12 | -0.24 | inactive
ZYG11B (GeneID 79699) | no change | no change | 0.66 | -0.27 | inactive
ARSI (GeneID 340075) | no change | no change | -0.58 | 1.15 | inactive
DUSP15 (GeneID 128853) | no change | no change | 0.5 | -1.06 | inactive
SSX3 (GeneID 10214) | no change | no change | 0.45 | -1.16 | inactive
SETD6 (GeneID 79918) | no change | no change | -0.68 | 0.24 | inactive
RSKR (GeneID 124923) | no change | no change | -0.74 | 1.01 | inactive
RTN4IP1 (GeneID 84816) | no change | no change | 0.82 | 3.09 | inactive
CD63 (GeneID 967) | no change | no change | 1.25 | 1.65 | inactive
DERL3 (GeneID 91319) | no change | no change | -0.55 | 0.96 | inactive
C1GALT1C1 (GeneID 29071) | no change | no change | 1.81 | 0.08 | inactive
ZNF384 (GeneID 171017) | no change | no change | 0.15 | -0.27 | inactive
CYCS (GeneID 54205) | no change | no change | -1.06 | -0.11 | inactive
ERLIN1 (GeneID 10613) | no change | no change | 0.01 | -0.74 | inactive
HOMER2 (GeneID 9455) | no change | no change | 1.25 | -0.11 | inactive
TRAFD1 (GeneID 10906) | no change | no change | 1.48 | 0.8 | inactive
MMP1 (GeneID 4312) | no change | no change | 0.16 | -0.28 | inactive
MPDZ (GeneID 8777) | no change | no change | 0.26 | -0.86 | inactive
ELOA2 (GeneID 51224) | no change | no change | 0.48 | -0.09 | inactive
GP1BA (GeneID 2811) | no change | no change | 0.97 | 0.48 | inactive
CD19 (GeneID 930) | no change | no change | -2.21 | -1.05 | inactive

6 entries from above, arranged by “viability robust z-score”, low to high.
target gene | viability hit class | caspase hit class | viability robust z-score | caspase robust z-score | call
ERLIN1 (GeneID 10613) | no change | no change | 0.01 | -0.74 | inactive
MMP1 (GeneID 4312) | no change | no change | 0.16 | -0.28 | inactive
MPDZ (GeneID 8777) | no change | no change | 0.26 | -0.86 | inactive
ELOA2 (GeneID 51224) | no change | no change | 0.48 | -0.09 | inactive
HOMER2 (GeneID 9455) | no change | no change | 1.25 | -0.11 | inactive
TRAFD1 (GeneID 10906) | no change | no change | 1.48 | 0.8 | inactive

The results go on.
target gene | viability hit class | caspase hit class | viability robust z-score | caspase robust z-score | call
KLK12 (GeneID 43849) | no change | no change | 0.66 | 0.24 | inactive
PIH1D2 (GeneID 120379) | no change | no change | -0.72 | 4.6 | inactive
SUN2 (GeneID 25777) | no change | no change | -0.42 | 2.27 | inactive
NUF2 (GeneID 83540) | no change | no change | -2.21 | 2.13 | inactive
ABCA5 (GeneID 23461) | no change | no change | 0.92 | -0.12 | inactive
ATP4B (GeneID 496) | no change | no change | 0.08 | -0.16 | inactive
RUVBL1 (GeneID 8607) | no change | no change | -2.75 | 0.82 | inactive
TBL2 (GeneID 26608) | no change | no change | 0.34 | -0.22 | inactive
TTC6 (GeneID 319089) | no change | no change | 0.46 | 0.06 | inactive
TMSB4Y (GeneID 9087) | no change | no change | -1.86 | -0.3 | inactive
LINC03122 (GeneID 285668) | no change | no change | -1.16 | -0.22 | inactive
GCNT2 (GeneID 2651) | no change | no change | 0.14 | -0.63 | inactive
CDKN2A (GeneID 1029) | no change | no change | -0.18 | -1.16 | inactive
EPCIP (GeneID 56245) | no change | no change | -1.04 | 2.92 | inactive
VEGFC (GeneID 7424) | no change | no change | 0.9 | 1.12 | inactive
XAB2 (GeneID 56949) | no change | no change | -2.11 | -0.5 | inactive
AASS (GeneID 10157) | no change | no change | 0.28 | -0.49 | inactive
PRX (GeneID 57716) | no change | no change | -0.65 | 1.02 | inactive
ZNF184 (GeneID 7738) | no change | no change | 0.22 | 3.74 | inactive
SNX15 (GeneID 29907) | no change | no change | 0.98 | -0.72 | inactive
ADAMTS12 (GeneID 81792) | no change | no change | -0.16 | -0.6 | inactive
LEO1 (GeneID 123169) | no change | no change | 0.49 | -0.52 | inactive
LRTM1 (GeneID 57408) | no change | no change | 0.94 | -0.38 | inactive
HP1BP3 (GeneID 50809) | no change | no change | 1.19 | 0.32 | inactive
NTM (GeneID 50863) | no change | no change | -2.5 | 2.93 | inactive
OR51F1 (GeneID 256892) | no change | no change | -0.2 | -0.45 | inactive
GRHPR (GeneID 9380) | no change | no change | -2.13 | -1.29 | inactive
GPR141 (GeneID 353345) | no change | no change | 1.13 | -1 | inactive
DNAI1 (GeneID 27019) | no change | no change | -0.52 | -0.86 | inactive
MCOLN3 (GeneID 55283) | no change | no change | -1.21 | 1.94 | inactive
CNIH1 (GeneID 10175) | no change | no change | -0.65 | -0.5 | inactive
GBP3 (GeneID 2635) | no change | no change | -2.23 | 2.99 | inactive
OR4F21 (GeneID 441308) | no change | no change | -0.98 | -0.64 | inactive
CRYGS (GeneID 1427) | no change | no change | 1.56 | -0.24 | inactive
INPP5D (GeneID 3635) | no change | no change | 1.06 | 0.4 | inactive
IARS1 (GeneID 3376) | no change | no change | -0.18 | -0.5 | inactive
LELP1 (GeneID 149018) | no change | no change | -0.01 | -0.6 | inactive
SPINDOC (GeneID 144097) | no change | no change | -0.48 | 0.16 | inactive
STON2 (GeneID 85439) | no change | no change | -3.08 | 1.74 | inactive
HOOK2 (GeneID 29911) | no change | no change | -0.33 | -0.44 | inactive
MT1F (GeneID 4494) | no change | no change | 0.22 | 0.46 | inactive
CACNG7 (GeneID 59284) | no change | no change | -0.68 | -1.08 | inactive
CENPO (GeneID 79172) | no change | no change | 0.57 | 0.31 | inactive
TBC1D23 (GeneID 55773) | no change | no change | 0.15 | 0.74 | inactive
PLXNA1 (GeneID 5361) | no change | no change | -0.74 | 2.17 | inactive
RTKN (GeneID 6242) | no change | CA1 (caspase activation) | -1.19 | 5.64 | active
SLC39A6 (GeneID 25800) | no change | no change | 0.17 | 3.29 | inactive
TMEM156 (GeneID 80008) | no change | no change | -0.38 | -0.34 | inactive
SEC16B (GeneID 89866) | no change | no change | 0.56 | -0.73 | inactive
